Results: publication PMC8418605
These are yes or no findings as the source states them, for the method shown. Binding seen in cells or lysates may run through a third protein. Some entries that bind do so weakly or less than the wild type.

By UniProt entry, the sequences of proteins in these tests, tags left out.
UniProt Q92769: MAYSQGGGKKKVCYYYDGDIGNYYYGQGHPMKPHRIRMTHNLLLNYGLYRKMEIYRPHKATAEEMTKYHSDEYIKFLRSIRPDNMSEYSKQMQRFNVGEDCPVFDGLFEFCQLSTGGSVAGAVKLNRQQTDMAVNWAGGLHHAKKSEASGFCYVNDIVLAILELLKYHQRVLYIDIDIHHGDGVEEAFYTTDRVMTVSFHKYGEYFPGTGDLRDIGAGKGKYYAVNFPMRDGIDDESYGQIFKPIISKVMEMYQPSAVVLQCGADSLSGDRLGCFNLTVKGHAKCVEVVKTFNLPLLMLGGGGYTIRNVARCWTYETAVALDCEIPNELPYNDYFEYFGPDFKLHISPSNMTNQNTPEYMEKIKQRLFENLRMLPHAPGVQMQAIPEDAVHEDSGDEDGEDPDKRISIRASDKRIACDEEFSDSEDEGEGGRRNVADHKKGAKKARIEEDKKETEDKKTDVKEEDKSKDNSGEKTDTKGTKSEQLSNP
UniProt Q13547: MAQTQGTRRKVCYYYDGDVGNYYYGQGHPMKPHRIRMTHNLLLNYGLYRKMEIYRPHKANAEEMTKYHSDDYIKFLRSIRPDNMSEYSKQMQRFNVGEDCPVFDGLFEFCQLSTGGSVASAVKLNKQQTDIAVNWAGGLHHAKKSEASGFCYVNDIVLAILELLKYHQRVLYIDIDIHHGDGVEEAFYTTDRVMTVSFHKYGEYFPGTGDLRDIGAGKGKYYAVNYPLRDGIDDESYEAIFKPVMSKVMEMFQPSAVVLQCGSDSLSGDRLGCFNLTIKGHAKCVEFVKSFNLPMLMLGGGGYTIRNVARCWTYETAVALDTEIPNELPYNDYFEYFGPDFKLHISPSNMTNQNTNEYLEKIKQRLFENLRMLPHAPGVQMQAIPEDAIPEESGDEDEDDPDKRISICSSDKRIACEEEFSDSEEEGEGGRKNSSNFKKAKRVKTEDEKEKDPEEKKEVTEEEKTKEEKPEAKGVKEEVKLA
UniProt P42229: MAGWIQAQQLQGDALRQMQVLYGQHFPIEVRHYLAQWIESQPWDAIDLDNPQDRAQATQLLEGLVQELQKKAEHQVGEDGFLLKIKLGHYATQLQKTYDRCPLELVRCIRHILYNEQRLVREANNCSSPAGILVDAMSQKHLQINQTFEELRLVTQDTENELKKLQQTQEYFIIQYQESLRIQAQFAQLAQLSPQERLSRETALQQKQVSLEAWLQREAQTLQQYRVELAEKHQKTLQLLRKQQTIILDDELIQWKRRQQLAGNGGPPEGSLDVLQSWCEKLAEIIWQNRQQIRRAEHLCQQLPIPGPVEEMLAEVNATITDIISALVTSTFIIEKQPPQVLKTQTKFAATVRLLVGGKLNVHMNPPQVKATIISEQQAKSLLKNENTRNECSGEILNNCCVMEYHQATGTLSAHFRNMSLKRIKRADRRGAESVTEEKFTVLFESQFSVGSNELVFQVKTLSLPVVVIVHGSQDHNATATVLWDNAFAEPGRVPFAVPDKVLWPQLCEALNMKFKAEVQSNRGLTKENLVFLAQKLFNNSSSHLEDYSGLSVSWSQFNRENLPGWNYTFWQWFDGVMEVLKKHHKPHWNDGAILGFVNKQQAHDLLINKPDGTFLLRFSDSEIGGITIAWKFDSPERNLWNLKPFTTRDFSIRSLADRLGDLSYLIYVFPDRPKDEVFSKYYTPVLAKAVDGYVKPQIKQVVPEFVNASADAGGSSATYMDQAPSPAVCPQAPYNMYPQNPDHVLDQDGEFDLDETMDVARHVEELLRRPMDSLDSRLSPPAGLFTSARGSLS

Assays:
[1] = molecular target: HDAC2 (human (endogenous in NPC-derived cells)) (UniProt Q92769); assay: co-IP; endogenous proteins; cells lysed in RIPA buffer, 300 ug protein extract with 1 ug antibody at 4 °C, protein G-agarose overnight, immunoblot
[2] = molecular target: HDAC1 (human (endogenous in NPC-derived cells)) (UniProt Q13547); assay: as above

- binding [1]: binds
- binding [2]: binds
Substance: STAT5A (from UniProt P42229 1-794)
